No constants are given. Whether binding was seen depends on the method and setting. Some entries that bind do so weakly or less than the wild type.
Columns and labels:
[1] = target: T1, glycosylated full length human mucin-like protein (gMLP) secreted by cancer cell lines Panc-1 and A2780 (human); assay: dot blot, A2780 supernatant (FIG. 7)
T1 sequence (chain, glycosylated (highly O-glycosylated; sites not given)): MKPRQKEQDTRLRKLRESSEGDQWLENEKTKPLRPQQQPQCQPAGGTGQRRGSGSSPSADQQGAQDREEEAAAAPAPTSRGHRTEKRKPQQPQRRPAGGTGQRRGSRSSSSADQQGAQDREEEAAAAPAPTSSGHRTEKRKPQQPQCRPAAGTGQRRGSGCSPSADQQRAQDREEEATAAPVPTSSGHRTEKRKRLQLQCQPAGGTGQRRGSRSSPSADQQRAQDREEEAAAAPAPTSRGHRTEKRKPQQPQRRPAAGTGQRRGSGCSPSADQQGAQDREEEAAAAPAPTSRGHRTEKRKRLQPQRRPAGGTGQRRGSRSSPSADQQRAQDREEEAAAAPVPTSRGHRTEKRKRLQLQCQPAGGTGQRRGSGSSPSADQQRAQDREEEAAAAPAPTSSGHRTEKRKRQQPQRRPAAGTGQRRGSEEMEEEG

[2] = target: T1, glycosylated full length human mucin-like protein (gMLP) secreted by cancer cell lines Panc-1 and A2780 (human); assay: dot blot, Panc-1 supernatant (FIG. 5)
[3] = target: T1, glycosylated full length human mucin-like protein (gMLP) secreted by cancer cell lines Panc-1 and A2780 (human); assay: Western blot (FIG. 8 legend, top panel)
[4] = target: T1, glycosylated full length human mucin-like protein (gMLP) secreted by cancer cell lines Panc-1 and A2780 (human); assay: summary of Example 2 (Western blot, dot blot)
[5] = target: T1, glycosylated full length human mucin-like protein (gMLP) secreted by cancer cell lines Panc-1 and A2780 (human); assay: Western blot, concentrated A2780 supernatant (FIG. 8)
[6] = target: T1, glycosylated full length human mucin-like protein (gMLP) secreted by cancer cell lines Panc-1 and A2780 (human); assay: ELISA test positive with both rMLP and gMLP, summary grade
[7] = target: T1, glycosylated full length human mucin-like protein (gMLP) secreted by cancer cell lines Panc-1 and A2780 (human); assay: dot blot, summary grade (gMLP secreted from Panc1 and A2780 cell lines)
[8] = target: T1, glycosylated full length human mucin-like protein (gMLP) secreted by cancer cell lines Panc-1 and A2780 (human); assay: ELISA, plate coated with 1 µg/ml concentrated A2780 supernatant (FIG. 9)
[9] = target: T1, glycosylated full length human mucin-like protein (gMLP) secreted by cancer cell lines Panc-1 and A2780 (human); assay: Western blot, summary grade (gMLP secreted from Panc1 and A2780 cell lines)
[10] = target: T1, glycosylated full length human mucin-like protein (gMLP) secreted by cancer cell lines Panc-1 and A2780 (human); assay: ELISA, plate coated with 1.0 µg/ml gMLP from concentrated supernatant of ovarian cancer cell line A2789 (FIG. 6)
[11] = target: recombinant MLP (rMLP) C-terminal fusion protein: N-terminal histidine tag fused to residues 279-431 of human mucin-like protein (human); assay: dot blot (FIG. 5)
[12] = target: recombinant MLP (rMLP) C-terminal fusion protein: N-terminal histidine tag fused to residues 279-431 of human mucin-like protein (human); assay: dot blot (FIG. 7)
[13] = target: recombinant MLP (rMLP) C-terminal fusion protein: N-terminal histidine tag fused to residues 279-431 of human mucin-like protein (human); assay: Western blot (FIG. 8)
[14] = target: T1, glycosylated full length human mucin-like protein (gMLP) secreted by cancer cell lines Panc-1 and A2780 (human); assay: Western blot (FIG. 8 legend, middle panel)
[15] = target: recombinant MLP (rMLP) C-terminal fusion protein: N-terminal histidine tag fused to residues 279-431 of human mucin-like protein (human); assay: Western blot (FIG. 8 legend, middle panel)
[16] = target: recombinant MLP (rMLP) C-terminal fusion protein: N-terminal histidine tag fused to residues 279-431 of human mucin-like protein (human); assay: summary of Example 2 (Western blot, dot blot, ELISA)
[17] = target: recombinant MLP (rMLP) C-terminal fusion protein: N-terminal histidine tag fused to residues 279-431 of human mucin-like protein (human); assay: ELISA test positive with both rMLP and gMLP, summary grade
[18] = target: recombinant MLP (rMLP) C-terminal fusion protein: N-terminal histidine tag fused to residues 279-431 of human mucin-like protein (human); assay: ELISA, plate coated with 10.0 µg/ml rMLP C-terminal protein
[19] = target: T1, glycosylated full length human mucin-like protein (gMLP) secreted by cancer cell lines Panc-1 and A2780 (human); assay: summary of Example 2 (Western blot, dot blot; also ELISA for clones 11 and B)

Measured: binding

B1: anti-MLP monoclonal antibody αMLP Clone C (hybridoma ATCC PTA-121701) (antibody, IgG1, V domains shown)
VH: DVKLQESGGGLVQPGGSMKLSCVASGFTFSNYWMNWVRQSPEKGLEWVAEIRLKSNNYAINYAESVKGRFTISRDDSKSSVYLDMNNLRAEDTGIYYCTSYYGSSLYYLDYWGQGTTLTVSS
VL: QIVLTQSPVIMSASPGEKVTISCSASSSVSNMYWYQQKPGSSPKAWIYRTSNLASGVPARFSGSGSGTSYSLTISSMEAEDAATYYCHQYQSYPRTFGAGTKLEIK
notes: also called 2(C); mAb clone C
binds: [1] | [2] | [3] | [4] | [5] | [6] | [7] | [8] | [9] | [10]

B2: anti-MLP monoclonal antibody αMLP Clone B (hybridoma ATCC PTA-121700) (antibody, IgG2a, V domains shown)
VH: EVQLQQSGPELVKPGASVKISCKASGYSFTGFYIHWVKQSHVKSLEWIGRIHPYNGAPTYNQNFKDRARLTVHESSSTAYMEFFGLTSEDSAVYYCARERVYYYGSTYEFDFWGQGTTLTVSS
VL: DVLMTQTPLSLPVSLGDQASISCRSGQSIVHSSGVTYLSWYLQKPGQSPKLLIYKVFYRFSGVPDRFSGSGSGTDFTLKISRVEAEDLGVYYCFQGSHVPPTFGTGTKLELK
notes: also called mAb clone B
not listed: [3] | [4]
binds: all other assays above
